According to doi:10.1101/2020.07.16.206730:
Results are given in words; binding and its absence hold for the method and conditions named. In cells and extracts the contact can be indirect. Some results given as binding are weak or reduced against the parent protein; the word gives no strength.

Sequences of proteins named here, by UniProt entry; tags and fusion partners are left off.
UniProt Q04695: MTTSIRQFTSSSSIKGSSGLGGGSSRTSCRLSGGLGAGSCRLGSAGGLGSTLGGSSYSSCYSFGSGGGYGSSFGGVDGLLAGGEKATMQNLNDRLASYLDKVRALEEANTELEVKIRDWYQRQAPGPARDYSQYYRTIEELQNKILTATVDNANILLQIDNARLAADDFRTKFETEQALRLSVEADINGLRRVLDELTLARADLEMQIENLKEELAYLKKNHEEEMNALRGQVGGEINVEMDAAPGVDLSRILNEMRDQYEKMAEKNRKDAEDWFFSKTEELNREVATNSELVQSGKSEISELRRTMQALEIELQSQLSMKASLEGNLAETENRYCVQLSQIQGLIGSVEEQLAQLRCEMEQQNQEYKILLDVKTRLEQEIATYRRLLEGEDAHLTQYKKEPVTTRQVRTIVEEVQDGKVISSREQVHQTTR

B1: lamin B2 (protein, UniProt Q03252 1-620)
chain: MSPPSPGRRREQRRPRAAATMATPLPGRAGGPATPLSPTRLSRLQEKEELRELNDRLAHYIDRVRALELENDRLLLKISEKEEVTTREVSGIKALYESELADARRVLDETARERARLQIEIGKLRAELDEVNKSAKKREGELTVAQGRVKDLESLFHRSEVELAAALSDKRGLESDVAELRAQLAKAEDGHAVAKKQLEKETLMRVDLENRCQSLQEELDFRKSVFEEEVRETRRRHERRLVEVDSSRQQEYDFKMAQALEELRSQHDEQVRLYKLELEQTYQAKLDSAKLSSDQNDKAASAAREELKEARMRLESLSYQLSGLQKQASAAEDRIRELEEAMAGERDKFRKMLDAKEQEMTEMRDVMQQQLAEYQELLDVKLALDMEINAYRKLLEGEEERLKLSPSPSSRVTVSRATSSSSGSLSATGRLGRSKRKRLEVEEPLGSGPSVLGTGTGGSGGFHLAQQASASGSVSIEEIDLEGKFVQLKNNSDKDQSLGNWRIKRQVLEGEEIAYKFTPKYILRAGQMVTVWAAGAGVAHSPPSTLVWKGQSSWGTGESFRTVLVNADGEEVAMRTVKKSSVMRENENGEEEEEEAEFGEEDLFHQQGDPRTTSRGCYVM
B2: Lamina-Associated Polypeptide 2 α isoform (protein, UniProt P42166 1-694)
chain: MPEFLEDPSVLTKDKLKSELVANNVTLPAGEQRKDVYVQLYLQHLTARNRPPLPAGTNSKGPPDFSSDEEREPTPVLGSGAAAAGRSRAAVGRKATKKTDKPRQEDKDDLDVTELTNEDLLDQLVKYGVNPGPIVGTTRKLYEKKLLKLREQGTESRSSTPLPTISSSAENTRQNGSNDSDRYSDNEEGKKKEHKKVKSTRDIVPFSELGTTPSGGGFFQGISFPEISTRPPLGSTELQAAKKVHTSKGDLPREPLVATNLPGRGQLQKLASERNLFISCKSSHDRCLEKSSSSSSQPEHSAMLVSTAASPSLIKETTTGYYKDIVENICGREKSGIQPLCPERSHISDQSPLSSKRKALEESESSQLISPPLAQAIRDYVNSLLVQGGVGSLPGTSNSMPPLDVENIQKRIDQSKFQETEFLSPPRKVPRLSEKSVEERDSGSFVAFQNIPGSELMSSFAKTVVSHSLTTLGLEVAKQSQHDKIDASELSFPFHESILKVIEEEWQQVDRQLPSLACKYPVSSREATQILSVPKVDDEILGFISEATPLGGIQAASTESCNQQLDLALCRAYEAAASALQIATHTAFVAKAMQADISQAAQILSSDPSRTHQALGILSKTYDAASYICEAAFDEVKMAAHTMGNATVGRRYLWLKDCKINLASKNKLASTPFKGGTLFGGEVCKVIKKRGNKH
B3: Lamina-Associated Polypeptide 2 β isoform (protein, UniProt P42167 1-454)
chain: MPEFLEDPSVLTKDKLKSELVANNVTLPAGEQRKDVYVQLYLQHLTARNRPPLPAGTNSKGPPDFSSDEEREPTPVLGSGAAAAGRSRAAVGRKATKKTDKPRQEDKDDLDVTELTNEDLLDQLVKYGVNPGPIVGTTRKLYEKKLLKLREQGTESRSSTPLPTISSSAENTRQNGSNDSDRYSDNEEDSKIELKLEKREPLKGRAKTPVTLKQRRVEHNQSYSQAGITETEWTSGSSKGGPLQALTRESTRGSRRTPRKRVETSEHFRIDGPVISESTPIAETIMASSNESLVVNRVTGNFKHASPILPITEFSDIPRRAPKKPLTRAEVGEKTEERRVERDILKEMFPYEASTPTGISASCRRPIKGAAGRPLELSDFRMEESFSSKYVPKYVPLADVKSEKTKKGRSIPVWIKILLFVVVAVFLFLVYQAMETNQVNPFSNFLHVDPRKSN
B4: Lamina-Associated Polypeptide 2 γ isoform (protein, UniProt P42167-2 1-345)
chain: MPEFLEDPSVLTKDKLKSELVANNVTLPAGEQRKDVYVQLYLQHLTARNRPPLPAGTNSKGPPDFSSDEEREPTPVLGSGAAAAGRSRAAVGRKATKKTDKPRQEDKDDLDVTELTNEDLLDQLVKYGVNPGPIVGTTRKLYEKKLLKLREQGTESRSSTPLPTISSSAENTRQNGSNDSDRYSDNEEDSKIELKLEKREPLKGRAKTPVTLKQRRVEHNQVGEKTEERRVERDILKEMFPYEASTPTGISASCRRPIKGAAGRPLELSDFRMEESFSSKYVPKYVPLADVKSEKTKKGRSIPVWIKILLFVVVAVFLFLVYQAMETNQVNPFSNFLHVDPRKSN

The binders below were run against Keratin 17 (human (endogenous in HeLa and A431)) (UniProt Q04695) (assay: co-IP).
With B1 the binding was “binds”. For B2, the binding was “binds”. B3 was tested, and the binding was “binds”. With B4 the binding was “binds”.
